No constants are given. Whether binding was seen depends on the method and setting. Some binding calls cover weakened binding; strength is not graded here.
What was measured:
[1] = target: T1, β1-YFP γ5 complex (YFP fused to the N terminus of bovine β1, with bovine γ5) (bovine) (UniProt P62871+P63217); experiment: FRET imaging of live cells
[2] = target: T1, β1-YFP γ5 complex (YFP fused to the N terminus of bovine β1, with bovine γ5) (bovine); experiment: acceptor photobleaching FRET in live M2-CHO cells
[3] = target: T1, β1-YFP γ5 complex (YFP fused to the N terminus of bovine β1, with bovine γ5) (bovine); experiment: fluorescence microscopy, co-localisation at the plasma membrane
[4] = target: bovine γ5 subunit (bovine) (UniProt P63217); experiment: fluorescence microscopy, localisation at the plasma membrane

Chains of the proteins cited; added tags and fusions are not shown. Lines headed by an entry give the natural chain unless they say otherwise; changes in a name come on top.
UniProt P62871: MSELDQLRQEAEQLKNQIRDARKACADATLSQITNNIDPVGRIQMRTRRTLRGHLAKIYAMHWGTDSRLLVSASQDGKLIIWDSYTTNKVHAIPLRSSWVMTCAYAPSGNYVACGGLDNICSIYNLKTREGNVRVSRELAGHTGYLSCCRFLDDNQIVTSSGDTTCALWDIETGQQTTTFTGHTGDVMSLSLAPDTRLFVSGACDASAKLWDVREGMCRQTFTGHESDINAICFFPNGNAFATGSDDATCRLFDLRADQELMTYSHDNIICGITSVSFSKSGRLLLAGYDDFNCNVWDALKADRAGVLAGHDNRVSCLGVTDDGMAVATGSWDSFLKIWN
UniProt P63217: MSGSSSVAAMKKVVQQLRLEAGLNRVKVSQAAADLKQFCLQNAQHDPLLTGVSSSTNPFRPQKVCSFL
UniProt P59215: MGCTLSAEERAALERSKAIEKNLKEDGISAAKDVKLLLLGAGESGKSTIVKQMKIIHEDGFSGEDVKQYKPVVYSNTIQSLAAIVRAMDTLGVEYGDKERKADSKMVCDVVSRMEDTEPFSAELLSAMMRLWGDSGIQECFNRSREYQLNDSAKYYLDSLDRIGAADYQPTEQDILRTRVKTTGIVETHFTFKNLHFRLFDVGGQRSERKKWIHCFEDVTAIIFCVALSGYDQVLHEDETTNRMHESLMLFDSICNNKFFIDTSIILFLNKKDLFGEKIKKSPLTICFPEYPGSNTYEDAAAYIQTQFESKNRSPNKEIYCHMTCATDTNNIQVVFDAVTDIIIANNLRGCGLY

binding [1] | binding [2] | binding [3] | binding [4] | Substance
binds | binds | binds |  | αo-CFP (rat G protein αo subunit with CFP inserted after Gly92) (from UniProt P59215 1-92; P59215 93-354)
 |  |  | binds | β1-YFP (YFP fused to the N terminus of the bovine β1 subunit) (from UniProt P62871 1-340)

— US8580517
